Data as given in the supplement of paper PMC3047530.
The list shows a part of the results. Many values rest on one well or one pass, so single values are uncertain.

test system: Geomyces destructans; test: growth inhibition relative to DMSO control; higher = stronger growth inhibition; details: 10 µM; 15 °C; incubation time 10 days

| SMILES | growth inhibition [%] |
| --- | --- |
| C=C1[C@@H]2CCC3[C@@](CC[C@@H]4[C@H](C(=O)O)C[C@@H](O[C@@H]5O[C@H](CO)[C@@H](OS(=O)(=O)O)[C@H](OS(=O)(=O)O)[C@H]5OC(=O)CC(C)C)C[C@@]34C)(C2)[C@@H]1O (stereo partly drawn) | -11.6 |
| CC[C@H]1CN2CCc3cc(OC)c(OC)cc3[C@@H]2C[C@@H]1C[C@H]1NCCc2cc(OC)c(OC)cc21 | -6.39 |
| CNC(C)C(O)c1ccccc1 (stereo not drawn) | -22.2 |
| COc1ccc(C(=O)O[C@H]2CC[C@@]3(C)[C@@H]4CC[C@H]5[C@]6(O)C[C@H](O)[C@@]7(O)[C@@H](CN8C[C@@H](C)CC[C@H]8[C@@]7(C)O)[C@]6(O)C[C@@]53O[C@]24O)cc1OC | -23.5 |
| CO[C@H]1[C@H](O)[C@H](O[C@H]2CC[C@@]3(C)[C@H](CC[C@@H]4[C@@H]3CC[C@]3(C)[C@@H](C5=CC(=O)OC5)CC[C@]43O)C2)O[C@@H](C)[C@@H]1O | -34.5 |
| COc1cc([C@@H]2c3cc4c(cc3[C@H](O)[C@H]3COC(=O)[C@H]23)OCO4)cc(OC)c1OC | -2.76 |
| Cc1ccc(O)cc1.Cc1cccc(O)c1.Cc1ccccc1O | -6.35 |
| CC[C@H]1[C@@H]2C[C@H]3[C@@H]4N(C)c5ccccc5[C@]45C[C@@H]([C@@H]2[C@H]5O)N3[C@@H]1O | -21.5 |
| C[C@@H]1CC[C@H]2[C@@H](C)C(=O)O[C@@H]3O[C@@]4(C)CC[C@@H]1[C@]32OO4 | -0.953 |
| CN1[C@@H]2C[C@@H]3C[C@H]1[C@H](O)[C@H]2O3 | -3.08 |
| COc1ccc(C[C@H]2NC[C@H](O)[C@H]2OC(C)=O)cc1 | -13.3 |
| CC(C)N(C(=O)SCC(Cl)=C(Cl)Cl)C(C)C | -2.71 |
| CCc1cccc(C)c1N(C(=O)CCl)C(C)COC (stereo not drawn) | -5.15 |
| O=C1c2ccccc2C(=O)c2ccccc21 | 13.6 |
| Oc1c(Cl)c(Cl)c(Cl)c(Cl)c1Cl | -6.83 |
| CNC(C)[C@H](O)c1ccccc1 (stereo partly drawn) | -12.5 |
| CC(C)=CCCC1(C)C=Cc2c(O)c3c(c(CC=C(C)C)c2O1)OC12C(=CC4CC1C(C)(C)OC2(C/C=C(/C)C(=O)O)C4O)C3=O (stereo not drawn) | -9.36 |
| COC[C@]12CN(C=O)[C@@H]3[C@@H]4[C@H](OC)[C@H]1[C@@]3([C@@H](OC)C[C@H]2O)[C@@H]1C[C@@]2(O)[C@H](OC(=O)c3ccccc3)[C@@H]1[C@]4(OC(C)=O)[C@@H](O)[C@@H]2OC | -3.8 |
| C[C@H]1C(=O)O[C@@H]2CCN3CC=C(COC(=O)[C@](C)(O)[C@]1(C)O)[C@H]23 | -11 |
| CO[C@]12C[C@@H](COC(=O)c3cncc(Br)c3)CN(C)[C@@H]1Cc1cn(C)c3cccc2c13 | -32.5 |
| O=[N+]([O-])/N=C1\NCCN1Cc1ccc(Cl)nc1 | -2.71 |
| C/C=C(/C)C(=O)O[C@H]1CC[C@@]2(C)[C@@H]3CC[C@H]4[C@]5(O)C[C@H](O)[C@@]6(O)[C@@H](CN7C[C@@H](C)CC[C@H]7[C@@]6(C)O)[C@]5(O)C[C@]42O[C@]13O | -34.9 |

| SMILES | growth inhibition [%] |
| --- | --- |
| O=C(O)COc1cc(Cl)c(Cl)cc1Cl | 90.4 |
| COc1cc2c(cc1OC)[C@@H]1C(=O)c3ccc4oc(C(C)C)cc4c3O[C@@H]1CO2 | -12.9 |
| O=C(O)CCC1NCC2CC1CN1CCCCC21 (stereo not drawn) | -20.4 |
| C[N+]12CCC(CC1)C(OC(=O)C(O)(c1ccccc1)c1ccccc1)C2 (stereo not drawn) | -9.69 |
| CN(C)C(=S)SSC(=S)N(C)C | 85.4 |
| O=C1NC(=O)C(=O)C(=O)N1 | -3.09 |
| CC(C)(C)NCC(O)c1ccccc1Cl (stereo not drawn) | -3.54 |
| CC(=O)OC1CC(OC(C)=O)C2(C)C(CC(OC(C)=O)C3(C)C2CCC2(C)C(c4ccoc4)CC4OC423)C1(C)C (stereo not drawn) | -12 |
| CC(C)C[C@H]1C(=O)N2CCC[C@H]2[C@]2(O)O[C@](NC(=O)[C@@H]3C=C4c5cccc6[nH]c(Br)c(c56)C[C@H]4N(C)C3)(C(C)C)C(=O)N12 | 9.25 |
| CN1[C@@H]2CC[C@H]1C[C@@H](OC(=O)C(CO)c1ccccc1)C2 (stereo partly drawn) | -16.4 |
| CCC(C)C(OC(C)=O)C(=O)OC1C(O)C2C3(C)C=CC(=O)C(C)(C)C3CC(OC(=O)C(O)C(C)C)C2(C)C23OC2CC(c2ccoc2)C13C (stereo not drawn) | -12.7 |
| CN1[C@@H]2CC[C@H]1C[C@@H](OC(c1ccccc1)c1ccccc1N)C2 (stereo partly drawn) | 16.6 |
| CN1Cc2c(ccc3c2OCO3)C2C(O)Cc3cc4c(cc3C21)OCO4 (stereo not drawn) | 1 |
| C[C@]12CCC(=O)C(O)=C1CC[C@@H]1[C@@H]2CC[C@]2(C)C(=O)CC[C@@H]12 | 4.68 |
| CCOP(=S)(OCC)Oc1cc(C)nc(C(C)C)n1 | -7.44 |
| CNC(C)(C)Cc1ccccc1 | -1.9 |
| CNC(Cc1c[nH]c2ccccc12)C(=O)O (stereo not drawn) | -12.3 |
| O=C(O)CCCOc1ccc(Cl)cc1Cl | -2.87 |
| COc1ccc(C(CN(C)C)C2(O)CCCCC2)cc1 (stereo not drawn) | -29.5 |
| COc1cc2c(cc1OC)-c1c(oc3c4c(ccc3c1=O)OC(C(C)C)C4)CO2 (stereo not drawn) | 4.1 |
| CN1[C@H]2C[C@H](OC(=O)[C@H](CO)c3ccccc3)C[C@@H]1[C@@H](O)C2 | -37.4 |
| CN(C)C(=O)Oc1cccc([N+](C)(C)C)c1 | -10.1 |

7 compounds picked at random from those above, as already listed:

| SMILES | growth inhibition [%] |
| --- | --- |
| CNC(Cc1c[nH]c2ccccc12)C(=O)O (stereo not drawn) | -12.3 |
| CC(C)(C)NCC(O)c1ccccc1Cl (stereo not drawn) | -3.54 |
| Cc1ccc(O)cc1.Cc1cccc(O)c1.Cc1ccccc1O | -6.35 |
| CCc1cccc(C)c1N(C(=O)CCl)C(C)COC (stereo not drawn) | -5.15 |
| O=C(O)COc1cc(Cl)c(Cl)cc1Cl | 90.4 |
| CC[C@H]1CN2CCc3cc(OC)c(OC)cc3[C@@H]2C[C@@H]1C[C@H]1NCCc2cc(OC)c(OC)cc21 | -6.39 |
| O=C(O)CCC1NCC2CC1CN1CCCCC21 (stereo not drawn) | -20.4 |

(more compounds)

| SMILES | growth inhibition [%] |
| --- | --- |
| COc1ccc(C(=O)O)cc1OC | 1.97 |
| CN1CCc2cc3c(cc2C1O)OCO3 (stereo not drawn) | -37.6 |
| COc1cccc2c1cc([N+](=O)[O-])c1c(C(=O)O)cc3c(c12)OCO3 | 15.5 |
| COc1ccc(/C=C/c2cc(O)cc(O)c2)cc1 | 6.39 |
| CC(=O)[O][Hg][c]1ccccc1 | 91.1 |
| O=c1[nH]c2ccccc2n1C1CCN(CCCC(c2ccc(F)cc2)c2ccc(F)cc2)CC1 | -28.2 |
| CC(=O)Nc1cc([As](=O)(O)O)ccc1O | -4.87 |
| C/C=C(\C)C(=O)O[C@H]1C[C@@H](OC(C)=O)[C@@]2(C(=O)OC)CO[C@H]3[C@@H](O)[C@@](C)([C@]45O[C@@]4(C)[C@H]4C[C@@H]5O[C@@H]5OC=C[C@@]54O)[C@H]4[C@]1(CO[C@]4(O)C(=O)OC)[C@@H]32 | 5.21 |
| Cc1cc2c(C(C)C)c(O)c(O)c(C=O)c2c(O)c1-c1c(C)cc2c(C(C)C)c(O)c(O)c(C=O)c2c1O | 11.1 |
| COc1c(CC=C(C)C)c2c(c3oc(=O)c(-c4ccc(O)cc4)c(O)c13)C=CC(C)(C)O2 | -4.92 |
| COc1cc2c(cc1OC)[C@@H]1C(=O)c3ccc(OC)c(CC=C(C)C)c3O[C@@H]1CO2 | -1.97 |
| CN(C)C(=O)Oc1ccc[n+](C)c1 | -0.639 |
| c1cc2c(cc1[C@H]1OC[C@H]3[C@@H]1CO[C@H]3c1ccc3c(c1)OCO3)OCO2 | 7.02 |
| C=C1[C@@H]([C@@]2(C)[C@@H](OC(C)=O)CC(=O)O[C@](C)(COC(C)=O)[C@@H]2C(=O)OC)[C@@H](OC=O)[C@H](OC(=O)[C@H](O)[C@H](C)CC)[C@@]2(C)[C@H](c3ccoc3)CC(=O)[C@]12O | -16.9 |
| c1ccc2c(c1)[nH]c1cnccc12 | 11 |
| CCC(C)c1cnc(CC(C)C)c(=O)n1O (stereo not drawn) | 4.33 |
| COc1cc(C(=O)O)cc(OC)c1OC | -5.49 |
| COC1=C[C@]23CCCN2CCc2cc4c(cc2[C@@H]3[C@@H]1O)OCO4 | -2.02 |
| NCCCNCCSP(=O)(O)O | -9.53 |
| CC(C)c1ccc2c(c1O)CC[C@H]1C3=C(CC[C@]21C)C(=O)OC3 | -4.09 |
| COc1cc2occc2c2oc(=O)ccc12 | -22.8 |
| CCCCCCCCC(=O)NCc1ccc(O)c(OC)c1 | -3.65 |

| SMILES | growth inhibition [%] |
| --- | --- |
| COc1cc2c(cc1O)C[C@H]1c3c(cc(O)c(OC)c3-2)CCN1C | -2.18 |
| C[C@H]1CC[C@]2(NC1)O[C@H]1C[C@H]3[C@@H]4CC[C@H]5C[C@@H](O[C@@H]6O[C@H](CO)[C@H](O[C@@H]7O[C@H](CO)[C@@H](O)[C@H](O[C@@H]8OC[C@@H](O)[C@H](O)[C@H]8O)[C@H]7O[C@@H]7O[C@H](CO)[C@@H](O)[C@H](O)[C@H]7O)[C@H](O)[C@H]6O)CC[C@]5(C)[C@H]4CC[C@]3(C)[C@H]1[C@@H]2C | -9.03 |
| CC1(C)C(=O)C=C[C@@]2(C)C1=C(O)C(=O)[C@]1(C)[C@@H]2CC[C@@]2(C)[C@H](c3ccoc3)C[C@H]3O[C@]321 | -2.22 |
| O=C1CCO1 | 7.52 |
| Cc1c(O)c(O)cc2c1CC=C1[C@@]2(C)CC[C@@]2(C)[C@@H]3C[C@](C)(C(=O)O)CC[C@]3(C)CC[C@]12C | -0.882 |
| CCOC(=O)NC1=C(N2CC2)C(=O)C(NC(=O)OCC)=C(N2CC2)C1=O | -15.7 |
| CC([C@H](O)c1ccccc1)N(C)C (stereo partly drawn) | -6.7 |
| COc1ccc(OC)c(C(O)C(C)N)c1 (stereo not drawn) | -3.31 |
| CCC(=O)O[C@H]1CC[C@H]2[C@@H]3CCC4=CC(=O)CC[C@]4(C)[C@H]3CC[C@]12C | 7.75 |
| CNC(=O)N(C)c1nnc(C(C)(C)C)s1 | -6.07 |
| O=C1C(Cl)=C(Cl)C(=O)C(Cl)=C1Cl | -32.3 |
| C[C@@H]1CC[C@]2(NC1)O[C@H]1C[C@H]3[C@@H]4CC=C5C[C@@H](O)CC[C@]5(C)[C@H]4CC[C@]3(C)[C@H]1[C@@H]2C | -15.8 |
| Oc1ccc(Cl)cc1Cc1cc(Cl)ccc1O | -18.6 |
| CC12CCC3C(CCC4(O)CC(O)CCC34/C=N/NC(N)=O)C1(O)CCC2C1=CC(=O)OC1 (stereo not drawn) | -4.12 |
| Cl[C@H]1[C@H](Cl)[C@@H](Cl)[C@@H](Cl)[C@H](Cl)[C@H]1Cl | -8.51 |
| CNC(=O)Oc1cccc2c1OC(C)(C)C2 | -8.51 |
| COC(C)(C)CCC[C@H](C)C/C=C/C(C)=C/C(=O)OC(C)C | 0.486 |
| C[C@@]12C(=O)OC(=O)[C@]1(C)[C@H]1CC[C@@H]2O1 | 77.6 |
| CCCC(C)(COC(N)=O)COC(=O)NC(C)C (stereo not drawn) | 4.61 |
| COc1cc(OC)c(OC)cc1C=O | 9.54 |
| C[N+]1(C)CCCC(OC(=O)C(O)(c2ccccc2)c2ccccc2)C1 (stereo not drawn) | 7.57 |
| CC(=O)O[C@@H]1C[C@H]2C(C)(C)C(=O)C=C[C@]2(C)[C@H]2CC[C@]3(C)C(=CC(=O)O[C@H]3c3ccoc3)[C@@]21C | -8.7 |
